# Measured data: PubChem BioAssay AID504791 (Drosophila RNAi Screening Center, 2011)
# Screen: 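Genes whose knock-down strengthens or weakens small-RNA reporter silencing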 (primary screen)
# Cell system: Drosophila S2-derived reporter cells
# Reagents: long dsRNA against Drosophila genes, about 150-250 ng dsRNA per well (siRNA assay); about 80-120 ng (miRNA assay)
# Duration: about 5 days (siRNA assay); about 4 days (miRNA assay)
# Challenge: copper sulfate induction of reporters: 25 µM (siRNA assay); 200 mM stated (miRNA assay), 1-2 days before reading
# Read-out: 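Dual luciferase assay: Renilla to firefly signal ratio in each well, scaled to the mean ratio of its plate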
# Direction: siRNA reporter hit score: higher = 3 marks a strong hit with raised ratio; -3 a strong hit with lowered ratio
# Rule for the call: 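a well was a first-pass pick when its plate-scaled ratio rose above 1.5 (siRNA assay) or 1.6 (miRNA assay), or dropped below 0.6; a gene counted only if two separate dsRNAs agreed on retest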
# In all, the deposit lists about 23,000 reagents; shown is a random part of those that have a named target and a result. Of all reagents, 199 (0.86%) got an active call. 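Plate-scaled ratios behind the calls are not deposited; printed light signals are raw; many rows marked increased or decreased are still called inactive.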 Unmarked entries are inactive. A plus sign joins genes that one reagent is predicted to hit.
target gene,dsRNA,siRNA reporter hit score,stable siRNA reporter change,miRNA reporter change,"stable assay Renilla, run 1 (luminescence)","stable assay firefly, run 1 (luminescence)"
MFS15,DRSC06523,,,,7590,4.33e5
MFS1,DRSC04115,,,,6475,3.61e5
alt,DRSC15315,,,,7826,3.65e5
Gr98d,DRSC14571,,,,5779,4.49e5
Spn77Bb + Spn77Bc,DRSC10689,,,,7079,5.00e5
Spn77Bb + Spn77Bc,DRSC11793,,,,7138,4.77e5
Eig71Eg,DRSC11154,,,,7215,4.87e5
CG6472,DRSC06989,,,,6883,4.00e5
Fkbp39,DRSC16667,,,reporter ratio lowered past the hit cutoff (active),6994,4.11e5
Smox,DRSC18716,,,,4835,2.93e5
CG31729,DRSC02524,,,,8645,1.10e6
CG31729,DRSC02946,,,,7459,5.35e5
CG4991,DRSC19928,,,,7292,4.42e5
mRpL42,DRSC06235,,,,5872,4.17e5
Tfb1,DRSC07082,-3,,,7167,4.36e5
PVRAP,DRSC09966,,,,5367,3.64e5
PVRAP,DRSC10577,,,,7078,6.13e5
CG4686,DRSC15622,,,,7594,4.09e5
Ekar,DRSC17161,,,,6719,3.38e5
pho,DRSC17219,,,,6758,3.58e5
RpS26,DRSC03420,,,reporter ratio lowered past the hit cutoff (active),6695,5.24e5
myo,DRSC17174,,,,6686,3.37e5
Cdk12,DRSC11836,-3,,,5743,2.83e5
Cdk12,DRSC23323,,reporter ratio raised past the hit cutoff (active),,4379,99571
Cdk12,DRSC29623,,,reporter ratio raised past the hit cutoff (active),,
Mtap,DRSC06890,,,,12996,5.78e5
CG2765,DRSC04315,,,reporter ratio lowered past the hit cutoff,14256,1.02e6

Reagents above called active:
target gene,dsRNA,siRNA reporter hit score,stable siRNA reporter change,miRNA reporter change,"stable assay Renilla, run 1 (luminescence)","stable assay firefly, run 1 (luminescence)"
Fkbp39,DRSC16667,,,reporter ratio lowered past the hit cutoff (active),6994,4.11e5
RpS26,DRSC03420,,,reporter ratio lowered past the hit cutoff (active),6695,5.24e5
Cdk12,DRSC23323,,reporter ratio raised past the hit cutoff (active),,4379,99571
Cdk12,DRSC29623,,,reporter ratio raised past the hit cutoff (active),,

Continued:
target gene,dsRNA,siRNA reporter hit score,stable siRNA reporter change,miRNA reporter change,"stable assay Renilla, run 1 (luminescence)","stable assay firefly, run 1 (luminescence)"
Pex23,DRSC10323,,,,8762,3.35e5
Pex23,DRSC10645,,,,7164,3.96e5
CG31221,DRSC14335,,,,6428,3.36e5
CG31221,DRSC16217,,,,5994,2.62e5
PXo,DRSC09734,,,,7191,4.27e5
Nplp3,DRSC09944,,,,7011,4.24e5
Odc2,DRSC07483,,,,6055,4.16e5
GMF,DRSC01928,,,,47224,1.67e6
Cec-Psi1,DRSC21956,,,,10322,5.80e5
RpL17,DRSC18293,,,,8283,3.34e5
rngo,DRSC19903,,,,5231,4.07e5
hog,DRSC19057,,,reporter ratio lowered past the hit cutoff,5627,4.09e5
CG13403,DRSC19535,,,,6795,4.38e5
Apl,DRSC10350,,,,9485,4.70e5
CG3323,DRSC18303,,,,5883,2.93e5
CG12605,DRSC08286,,,,6467,3.73e5
Snmp2,DRSC10228,,,,6350,3.76e5
Snmp2,DRSC10843,,,,6668,3.75e5
CG15143,DRSC02444,,,,7935,3.68e5
CG31445,DRSC14443,,,,8227,5.97e5
CG10841,DRSC14271,,,,7702,5.22e5
mRpL16,DRSC18550,,,,7726,6.25e5
CG17145,DRSC10247,,,,7460,5.19e5
Pxn,DRSC08685,,,,3824,3.60e5
CG12951,DRSC14579,,,,6159,5.31e5
Pvf3,DRSC02284,,,,7434,4.11e5
Pvf3,DRSC02285,,,,6968,4.24e5
Pvf3,DRSC02286,,,,6918,3.76e5
Pvf3,DRSC02751,,,,7456,3.36e5
scpr-A + scpr-C,DRSC15737,,,,5592,3.94e5
